Inconclusive results, whose numbers are uncertain, are shown with a selection of clear calls. For part of these data: Potencies beside an inconclusive call are fits to weak or partial responses and may not hold up. Calls of active or inactive are those of the source. Rule for the calls: active = hit-call score of the fitted dose curve at least 0.9, where 1 is the maximum; inconclusive = response in the unintended direction; inactive = score below 0.9.
Columns and labels:
[1] = molecular target: Estrogen-related receptor gamma (Homo sapiens) (UniProt P62508); experiment: ATG_ERRg_TRANS: Attagene TRANS-FACTORIAL HepG2 Assay for human Estrogen-Related Receptor gamma (ERRg) (AID 2282977); conditions: HepG2 Attagene TRANS reporter, ERRg transactivation;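 note: hits increase reporter signal over DMSO so potencies reflect activators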
Procedure, shortened: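 Exogenous NR-Gal4 chimera activity was assessed in HepG2 cells bearing transfected GAL4-UAS reporters. After 24 h dosing, total RNA underwent RT-PCR, fluorescent primer extension and HpaI digestion before capillary electrophoresis, with gain of signal scored against DMSO.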

Amino acid sequences for entries named in this document (tags omitted). A change or cut given only in a name is not applied to a line headed by its entry.
UniProt P62508: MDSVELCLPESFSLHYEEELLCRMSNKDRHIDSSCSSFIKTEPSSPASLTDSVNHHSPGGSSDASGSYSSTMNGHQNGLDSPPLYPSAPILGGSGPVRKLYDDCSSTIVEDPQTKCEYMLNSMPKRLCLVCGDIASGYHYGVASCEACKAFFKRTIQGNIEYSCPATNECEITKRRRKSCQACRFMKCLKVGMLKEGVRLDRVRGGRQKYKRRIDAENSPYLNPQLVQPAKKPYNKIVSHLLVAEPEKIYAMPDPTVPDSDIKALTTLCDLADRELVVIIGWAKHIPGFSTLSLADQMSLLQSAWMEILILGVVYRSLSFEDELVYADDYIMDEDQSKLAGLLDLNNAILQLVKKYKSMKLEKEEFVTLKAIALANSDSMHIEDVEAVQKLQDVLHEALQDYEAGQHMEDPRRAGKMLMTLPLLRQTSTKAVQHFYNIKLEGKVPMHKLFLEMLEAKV
UniProt Q96RI1: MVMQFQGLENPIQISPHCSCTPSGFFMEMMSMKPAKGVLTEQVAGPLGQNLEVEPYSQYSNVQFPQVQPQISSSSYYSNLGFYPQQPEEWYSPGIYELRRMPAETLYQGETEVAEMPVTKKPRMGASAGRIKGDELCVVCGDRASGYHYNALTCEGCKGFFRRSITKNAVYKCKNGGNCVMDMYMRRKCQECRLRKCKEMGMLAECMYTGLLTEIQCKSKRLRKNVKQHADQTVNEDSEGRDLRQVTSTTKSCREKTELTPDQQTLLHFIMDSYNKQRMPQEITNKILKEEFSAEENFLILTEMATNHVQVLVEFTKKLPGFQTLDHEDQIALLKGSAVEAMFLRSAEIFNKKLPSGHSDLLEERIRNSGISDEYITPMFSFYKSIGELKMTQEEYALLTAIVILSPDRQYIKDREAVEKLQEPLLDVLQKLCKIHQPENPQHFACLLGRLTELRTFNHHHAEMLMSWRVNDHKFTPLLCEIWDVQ
UniProt P11473: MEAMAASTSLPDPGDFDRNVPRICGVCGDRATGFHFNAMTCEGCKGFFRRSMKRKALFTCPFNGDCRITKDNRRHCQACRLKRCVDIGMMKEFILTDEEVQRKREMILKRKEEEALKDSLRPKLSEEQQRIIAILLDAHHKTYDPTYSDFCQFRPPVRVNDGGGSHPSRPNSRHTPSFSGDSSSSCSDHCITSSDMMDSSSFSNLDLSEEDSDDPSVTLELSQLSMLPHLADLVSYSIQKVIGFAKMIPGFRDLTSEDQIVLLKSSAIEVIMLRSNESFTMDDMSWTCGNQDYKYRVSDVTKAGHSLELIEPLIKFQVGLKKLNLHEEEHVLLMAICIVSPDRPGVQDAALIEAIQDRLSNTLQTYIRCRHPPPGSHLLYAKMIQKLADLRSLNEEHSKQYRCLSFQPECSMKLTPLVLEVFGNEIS
UniProt P19793: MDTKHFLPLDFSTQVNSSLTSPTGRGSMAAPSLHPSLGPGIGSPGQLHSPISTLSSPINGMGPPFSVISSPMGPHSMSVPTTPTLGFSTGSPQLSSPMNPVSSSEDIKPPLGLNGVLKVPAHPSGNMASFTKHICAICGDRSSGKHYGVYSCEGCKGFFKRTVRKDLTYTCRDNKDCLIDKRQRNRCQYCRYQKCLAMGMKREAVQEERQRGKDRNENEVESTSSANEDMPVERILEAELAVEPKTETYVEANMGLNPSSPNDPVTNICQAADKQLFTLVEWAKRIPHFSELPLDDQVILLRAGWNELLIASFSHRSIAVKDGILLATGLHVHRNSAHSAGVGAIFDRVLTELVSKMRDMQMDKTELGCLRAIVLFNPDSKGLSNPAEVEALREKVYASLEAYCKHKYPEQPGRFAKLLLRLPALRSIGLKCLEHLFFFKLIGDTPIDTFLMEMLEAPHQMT
UniProt P10275: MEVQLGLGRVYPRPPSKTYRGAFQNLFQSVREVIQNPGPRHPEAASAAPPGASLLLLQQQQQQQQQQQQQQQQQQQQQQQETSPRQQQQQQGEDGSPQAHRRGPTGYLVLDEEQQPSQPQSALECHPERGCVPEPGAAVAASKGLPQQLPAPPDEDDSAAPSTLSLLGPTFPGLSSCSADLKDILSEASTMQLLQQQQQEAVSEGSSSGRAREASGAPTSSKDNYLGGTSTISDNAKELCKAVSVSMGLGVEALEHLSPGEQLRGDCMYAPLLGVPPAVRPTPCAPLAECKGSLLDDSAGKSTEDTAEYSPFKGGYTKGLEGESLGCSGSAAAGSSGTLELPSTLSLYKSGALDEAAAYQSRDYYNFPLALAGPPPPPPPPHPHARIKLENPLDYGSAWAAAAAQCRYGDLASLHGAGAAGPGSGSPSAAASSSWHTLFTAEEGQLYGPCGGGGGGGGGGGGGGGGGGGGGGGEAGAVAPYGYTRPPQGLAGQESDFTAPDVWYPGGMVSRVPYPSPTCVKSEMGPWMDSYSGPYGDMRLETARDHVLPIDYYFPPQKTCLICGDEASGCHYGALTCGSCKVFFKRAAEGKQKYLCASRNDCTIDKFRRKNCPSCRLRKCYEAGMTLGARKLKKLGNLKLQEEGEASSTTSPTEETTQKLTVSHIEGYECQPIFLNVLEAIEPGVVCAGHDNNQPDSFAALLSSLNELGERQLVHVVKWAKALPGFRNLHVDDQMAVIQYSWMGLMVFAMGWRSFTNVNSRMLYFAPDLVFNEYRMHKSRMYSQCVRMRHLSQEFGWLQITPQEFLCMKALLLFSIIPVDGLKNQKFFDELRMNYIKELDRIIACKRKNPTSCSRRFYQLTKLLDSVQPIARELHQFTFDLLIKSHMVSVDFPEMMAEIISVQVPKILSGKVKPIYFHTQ
UniProt Q03181: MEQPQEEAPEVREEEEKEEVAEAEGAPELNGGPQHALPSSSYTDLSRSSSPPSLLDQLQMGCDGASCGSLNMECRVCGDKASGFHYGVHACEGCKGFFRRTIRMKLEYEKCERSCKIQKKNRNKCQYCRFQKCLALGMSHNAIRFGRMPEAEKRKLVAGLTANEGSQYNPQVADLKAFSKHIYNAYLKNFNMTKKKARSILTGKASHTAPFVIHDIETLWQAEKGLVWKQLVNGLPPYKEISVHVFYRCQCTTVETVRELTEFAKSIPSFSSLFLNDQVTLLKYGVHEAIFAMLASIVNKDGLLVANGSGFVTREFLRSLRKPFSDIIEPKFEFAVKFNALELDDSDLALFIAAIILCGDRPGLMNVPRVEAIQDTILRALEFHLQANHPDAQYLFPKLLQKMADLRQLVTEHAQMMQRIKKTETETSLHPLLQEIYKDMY
UniProt O75469: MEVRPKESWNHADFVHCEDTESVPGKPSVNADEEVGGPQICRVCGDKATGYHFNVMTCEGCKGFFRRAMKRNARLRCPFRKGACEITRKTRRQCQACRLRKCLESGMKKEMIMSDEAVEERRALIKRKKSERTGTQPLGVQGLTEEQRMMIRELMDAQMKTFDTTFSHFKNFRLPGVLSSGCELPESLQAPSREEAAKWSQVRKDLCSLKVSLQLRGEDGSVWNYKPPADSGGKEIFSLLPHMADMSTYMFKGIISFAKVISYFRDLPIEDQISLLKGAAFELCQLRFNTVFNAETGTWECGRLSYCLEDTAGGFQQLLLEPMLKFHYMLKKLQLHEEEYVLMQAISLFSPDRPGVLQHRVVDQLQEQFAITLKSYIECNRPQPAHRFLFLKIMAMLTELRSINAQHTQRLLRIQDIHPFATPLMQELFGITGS
UniProt P03372, whole entry, looked up: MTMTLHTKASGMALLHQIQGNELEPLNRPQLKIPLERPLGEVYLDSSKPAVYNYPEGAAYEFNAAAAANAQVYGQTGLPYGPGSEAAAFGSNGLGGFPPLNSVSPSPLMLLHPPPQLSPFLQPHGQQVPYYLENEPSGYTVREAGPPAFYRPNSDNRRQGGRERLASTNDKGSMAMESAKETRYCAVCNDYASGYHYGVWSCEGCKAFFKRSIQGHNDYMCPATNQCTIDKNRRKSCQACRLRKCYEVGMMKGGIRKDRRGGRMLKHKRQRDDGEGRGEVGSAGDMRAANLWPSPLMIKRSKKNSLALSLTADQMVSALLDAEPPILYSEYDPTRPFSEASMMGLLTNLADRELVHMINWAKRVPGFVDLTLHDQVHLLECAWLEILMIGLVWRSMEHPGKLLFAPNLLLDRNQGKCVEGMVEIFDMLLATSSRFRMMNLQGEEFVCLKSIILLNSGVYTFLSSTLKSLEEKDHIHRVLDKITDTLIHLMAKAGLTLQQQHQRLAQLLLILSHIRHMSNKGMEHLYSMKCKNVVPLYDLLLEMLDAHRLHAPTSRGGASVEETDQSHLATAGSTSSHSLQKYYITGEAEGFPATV
UniProt P19785, whole entry, looked up: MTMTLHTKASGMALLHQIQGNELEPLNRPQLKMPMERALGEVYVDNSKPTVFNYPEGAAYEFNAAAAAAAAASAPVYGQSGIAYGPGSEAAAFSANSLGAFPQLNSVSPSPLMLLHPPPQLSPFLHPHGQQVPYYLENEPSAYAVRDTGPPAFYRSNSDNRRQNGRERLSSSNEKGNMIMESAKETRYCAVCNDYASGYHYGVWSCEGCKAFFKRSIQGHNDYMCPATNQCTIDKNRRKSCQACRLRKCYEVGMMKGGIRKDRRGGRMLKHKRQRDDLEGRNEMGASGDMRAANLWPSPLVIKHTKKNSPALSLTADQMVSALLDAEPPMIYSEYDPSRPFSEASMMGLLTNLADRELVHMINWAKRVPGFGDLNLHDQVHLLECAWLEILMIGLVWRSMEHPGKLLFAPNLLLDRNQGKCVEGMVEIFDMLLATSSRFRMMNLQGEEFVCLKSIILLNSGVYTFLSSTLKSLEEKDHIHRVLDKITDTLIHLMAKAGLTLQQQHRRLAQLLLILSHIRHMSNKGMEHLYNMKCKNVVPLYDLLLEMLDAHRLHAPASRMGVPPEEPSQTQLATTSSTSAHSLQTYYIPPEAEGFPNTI
UniProt P04637, whole entry, looked up: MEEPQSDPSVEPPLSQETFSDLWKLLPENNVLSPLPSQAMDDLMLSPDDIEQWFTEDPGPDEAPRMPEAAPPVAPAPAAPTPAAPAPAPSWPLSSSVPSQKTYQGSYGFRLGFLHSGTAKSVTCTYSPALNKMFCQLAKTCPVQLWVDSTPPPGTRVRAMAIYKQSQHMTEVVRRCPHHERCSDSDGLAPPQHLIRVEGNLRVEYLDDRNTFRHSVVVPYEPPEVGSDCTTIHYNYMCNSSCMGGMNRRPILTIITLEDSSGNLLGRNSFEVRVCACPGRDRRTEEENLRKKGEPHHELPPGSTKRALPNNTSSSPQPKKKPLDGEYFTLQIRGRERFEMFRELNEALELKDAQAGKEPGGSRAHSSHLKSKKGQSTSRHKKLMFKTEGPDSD

[2] = molecular target: Bile acid receptor (Homo sapiens) (UniProt Q96RI1); experiment: ATG_FXR_TRANS: Attagene TRANS-FACTORIAL HepG2 Assay for Farnesoid X Receptor (FXR) (AID 2282979); conditions: HepG2 Attagene TRANS FXR-GAL4 reporter transcription;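 note: hits raise reporter mRNA above DMSO so AC50 marks FXR activation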
Procedure, shortened: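 After 24 h chemical treatment of transfected HepG2 cells, GAL4-UAS reporter transcripts driven by an exogenous FXR-GAL4 fusion were measured by RT-PCR and capillary electrophoresis. Increases over DMSO were fitted.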

[3] = ATG_M_06_TRANS: Attagene TRANS-FACTORIAL HepG2 Assay for M06 Transcription Factor (Internal Marker) (AID 2282983); conditions: HepG2 Attagene TRANS M06 internal marker reporter;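 note: potency for rise in reporter mRNA above DMSO baseline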
Procedure, shortened: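 Multi-reporter-transfected HepG2, 24 h treatment; reporter transcripts quantified via RT-PCR, primer-extension labelling and CE. DMSO-normalized gain-of-signal fit.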

[4] = molecular target: human Vitamin D Receptor (VDR), VDR (gene 7421) (UniProt P11473); experiment: ATG_VDR_TRANS: Attagene TRANS-FACTORIAL HepG2 Assay for human Vitamin D Receptor (VDR) (AID 2283022)
Procedure, shortened: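 Multiplexed TRANS reporter in HepG2; 24 h treatment; reporter mRNA by RT-PCR plus capillary electrophoresis; upregulation scored relative to DMSO.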

[5] = molecular target: Retinoic acid receptor RXR-alpha (Homo sapiens) (UniProt P19793); experiment: OT_NURR1_NURR1RXRa_0480: Odyssey Thera (OT) 8-hour HEK293T Protein Complementation Assay for Nurr1/retinoid X receptor (RXR) (AID 2283385)
Procedure, shortened: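 Gain in fluorescent complementation signal over DMSO, measured 8 hours after chemical dosing of human kidney HEK293T cells, indicated enhanced Nurr1–RXRα association.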

[6] = molecular target: Androgen receptor (Homo sapiens) (UniProt P10275); experiment: ATG_AR_TRANS: Attagene TRANS-FACTORIAL HepG2 Assay for human Androgen Receptor (AR) (AID 2282973); conditions: HepG2 Attagene TRANS-FACTORIAL AR reporter transcription
Procedure, shortened: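 Chimeric nuclear receptor–Gal4 activity was assessed in human HepG2 hepatocytes after 24 h chemical dosing. Induced reporter mRNA was detected via labelled RT-PCR fragments on capillary electrophoresis, and gain of signal was analysed against DMSO.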

[7] = ATG_M_32_TRANS: Attagene TRANS-FACTORIAL HepG2 Assay for M32 Transcription Factor (Internal Marker) (AID 2282984); conditions: HepG2 Attagene TRANS M32 internal marker reporter;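 for outcome: transcript level of a background control reporter unit measured by RT-PCR and capillary electrophoresis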
Procedure, shortened: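 Cell-based TRANS-format assay in HepG2: exogenous chimeric GAL4 reporter units transiently expressed, compounds applied 24 h. Reporter mRNA detected by RT-PCR plus capillary electrophoresis; this readout is an internal background marker.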

[8] = molecular target: human Peroxisome Proliferator-activated Receptor delta (PPARd), PPARD (gene 5467) (UniProt Q03181); experiment: ATG_PPARd_TRANS: Attagene TRANS-FACTORIAL HepG2 Assay for human Peroxisome Proliferator-activated Receptor delta (PPARd) (AID 2283002)
Procedure, shortened: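 Transient HepG2 transfection (multiple GAL4-UAS RTUs, chimeric receptor-Gal4); 24 h dosing; total RNA → oligo(dT) RT → PCR → 6-FAM primer extension → HpaI cut → CE. Positive direction vs DMSO.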

[9] = molecular target: Nuclear receptor subfamily 1 group I member 2 (Homo sapiens) (UniProt O75469); experiment: ATG_PXR_TRANS: Attagene TRANS-FACTORIAL HepG2 Assay for human Pregnane X Receptor (PXR) (AID 2283008)
Procedure, shortened: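 HepG2 transfected (FuGene 6) with GAL4-UAS reporter units + PXR-Gal4 chimera; dosed 24 h. Total RNA → oligo(dT) RT → PCR → 6-FAM primer extension → HpaI cut → CE. Gain-of-signal vs DMSO.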

[10] = molecular target: Retinoic acid receptor RXR-alpha (Homo sapiens) (UniProt P19793); experiment: ATG_RXRa_TRANS: Attagene TRANS-FACTORIAL HepG2 Assay for human Retinoid X Receptor alpha (RXRa) (AID 2283012)
Procedure, shortened: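 Chimeric NR-GAL4 trans-activation in HepG2, 24 h treatment; reporter transcripts quantified by fluorescence on capillary electrophoresis, analysed for upward change from DMSO.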

[11] = molecular target: Estrogen receptor (Homo sapiens) (UniProt P03372); experiment: NVS_NR_hER: NovaScreen (NVS) Nuclear Receptor Binding Assay for human Estrogen Receptor (ER) (AID 2283348)
Procedure, shortened: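 Cell-free MCF7-derived ER preparation, specific radioligand displaced by test compound, read by scintillation counting 18 h post-dosing. Duplicate single-point 25 uM screen, then concentration-response confirmation; DMSO baseline.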

[12] = molecular target: mouse Estrogen Receptor alpha (Era), Esr1 (gene 13982) (UniProt P19785); experiment: NVS_NR_mERa: NovaScreen (NVS) Nuclear Receptor Binding Assay for mouse Estrogen Receptor alpha (Era) (AID 2283378);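 note: hit means loss of bound radioligand signal relative to DMSO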
Procedure, shortened: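 Measurements come from scintillation counting after filtration, taken 18 hours after chemicals were added to a cell-free mouse Era preparation with radioligand. Screening was duplicate at 25 uM, with concurrent positive and negative controls and confirmatory concentration series for actives.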

[13] = molecular target: Cellular tumor antigen p53 (Homo sapiens) (UniProt P04637); experiment: TOX21_p53_BLA_p2_ratio: Tox21 HCT-116 p53 Agonism Beta-lactamase Assay, Ratio, Phase 2 (AID 2283592)
Procedure, shortened: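 DMSO-normalized, positive-direction endpoint derived from the 460 nm/530 nm FRET ratio in HCT116 p53 beta-lactamase reporter cells exposed 16 h at 37C and loaded with CCF4-AM for 2 h.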

[14] = TOX21_p53_BLA_p5_viability: Viability Assessment in the Tox21 HCT-116 p53 Agonism Beta-lactamase Assay, Phase 5 (AID 2283600)
Procedure, shortened: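 Here cell health was gauged by ATP levels in wells holding 4000 cells, each treated 16 h with DMSO-delivered compounds at 217-fold dilution; reduced luminescence marked toxicity.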

[15] = molecular target: Cellular tumor antigen p53 (Homo sapiens) (UniProt P04637); experiment: TOX21_p53_BLA_p4_ratio: Tox21 HCT-116 p53 Agonism Beta-lactamase Assay, Ratio, Phase 4 (AID 2283601)
Procedure, shortened: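 Signal is the blue/green (460nm/530nm) ratio of cleaved versus uncleaved CCF4-AM substrate, read after 2 h substrate loading. Cells were HCT116 carrying the p53-responsive beta-lactamase reporter, dosed 16 h at 37C, 5% CO2; CellTiter-Glo measured in parallel.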

[16] = ACEA_ER_AUC_viability: ACEA Biosciences xCELLigence Real-Time Cell Analysis on Estrogen Receptor Agonism for Viability (AID 2283782);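 note: hit means loss of impedance signal meaning reduced cell growth or viability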
Procedure, shortened: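 Viability endpoint: reduced impedance area under the curve relative to DMSO, recorded by real-time electrode sensing over ~80 h of continuous exposure. Duplicate plates of T47D in hormone-depleted medium; eight concentrations, 1:4 dilutions, 100 uM maximum.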

[17] = ATG_XTT_Cytotoxicity: Cytotoxicity Assessment in the Attagene TRANS-FACTORIAL HepG2 Assay (AID 2283584);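 for AC50: XTT signal for cell number as viability in transfected HepG2 cells; cells exposed to compound for 24 h before reading; active means loss of viability signal versus DMSO baseline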
Procedure, shortened: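 24 h chemical exposure of reporter-transfected HepG2; XTT signal loss vs DMSO indicates cytotoxicity.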

[18] = molecular target: Cellular tumor antigen p53 (Homo sapiens) (UniProt P04637); experiment: TOX21_p53_BLA_p5_ratio: Tox21 HCT-116 p53 Agonism Beta-lactamase Assay, Ratio, Phase 5 (AID 2283599)
Procedure, shortened: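 Beta-lactamase reporter ratio (blue 460 nm over green 530 nm, 405 nm excitation) after 2 h CCF4-AM loading, in HCT-116 cells exposed 16 h at 37 C to compounds pinned at 217-fold dilution. Increases relative to DMSO baseline scored.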

Structure (SMILES): [Co]
- outcome [1]: inactive
- outcome [2]: inactive
- AC50 [3]: inconclusive: 50 µM
- AC50 [4]: inconclusive: 0.00409 µM
- AC50 [5]: inconclusive: 25 µM

Structure (SMILES): CC(C)(CO)CO
- AC50 [6]: inconclusive: 100 µM
- AC50 [1]: inconclusive: 2.36 µM
- AC50 [7]: inconclusive: 180 µM
- outcome [8]: inactive
- AC50 [9]: inconclusive: 100 µM
- AC50 [10]: inconclusive: 2.77 µM
- AC50 [11]: inconclusive: 0.00032 µM
- AC50 [12]: inconclusive: 1.33 µM
- AC50 [13]: inconclusive: 46.1 µM
- AC50 [14]: inconclusive: 13.7 µM
- outcome [14]: inactive
- outcome [15]: inactive
- outcome [16]: inactive

Structure (SMILES): O=C1OC(=O)c2cc(Oc3ccc4c(c3)C(=O)OC4=O)ccc21
- outcome [6]: inactive
- AC50 [7]: inconclusive: 24.2 µM
- AC50 [9]: inconclusive: 0.0814 µM
- AC50 [17]: inconclusive: 100 µM
- AC50 [18]: inconclusive: 46.1 µM
- outcome [15]: inactive

Structure (SMILES): C=CC(=O)OCC(CO)(COC(=O)C=C)COC(=O)C=C
- AC50 [6]: inconclusive: 169 µM
- AC50 [2]: inconclusive: 153 µM
- outcome [8]: inactive
- AC50 [9]: inconclusive: 100 µM
- AC50 [10]: inconclusive: 178 µM
- AC50 [4]: inconclusive: 180 µM
- outcome [11]: inactive
- AC50 [12]: inconclusive: 25 µM
- AC50 [16]: active: 2.64 µM

Structure (SMILES): Cc1ccc(O)cn1
- AC50 [1]: inconclusive: 170 µM
- AC50 [3]: inconclusive: 100 µM
- outcome [7]: inactive
- AC50 [16]: inconclusive: 0.595 µM

Structure (SMILES): CC1CCCCC1
- AC50 [6]: inconclusive: 100 µM
- AC50 [8]: inconclusive: 24 µM
- AC50 [10]: inconclusive: 100 µM
- outcome [17]: inactive
- AC50 [16]: inconclusive: 0.135 µM

Structure (SMILES): CO[Si](OC)(c1ccccc1)c1ccccc1
- AC50 [1]: inconclusive: 184 µM
- AC50 [8]: inconclusive: 0.704 µM

Structure (SMILES): CCC(O)=C1C(=O)CC(C(=O)O)CC1=O (stereo not given)
- AC50 [6]: inconclusive: 91.3 µM
- AC50 [1]: inconclusive: 50 µM
- AC50 [2]: inconclusive: 50 µM
- AC50 [8]: inconclusive: 50 µM
- AC50 [9]: inconclusive: 50 µM
- AC50 [4]: inconclusive: 0.0562 µM

Structure (SMILES): O=C(O)CCCCCCCCCC(=O)O
- outcome [6]: inactive
- outcome [7]: inactive
- AC50 [8]: inconclusive: 100 µM
- outcome [4]: inactive
- outcome [11]: inactive
- AC50 [17]: inconclusive: 100 µM
- outcome [14]: inactive
